PfKRS1: 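Enzyme assay of the cytosolic lysyl-tRNA synthetase in 384-well plates, read by luminescence. Target: Lysine-tRNA ligase, Plasmodium falciparum 3D7 (UniProt Q8IDJ8). Compounds at 30 µM. Higher reads as stronger inhibition, judged from the few compounds that gave an IC50. Of about 69,000 compounds tested this way, about 49 (0.071%) reached 50% or more in at least one test.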
MtTrpRS: 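Tryptophan-tRNA ligase, Mycobacterium tuberculosis (UniProt P9WFT3). Enzyme assay of tryptophanyl-tRNA synthetase; the read-out is not stated. Compounds at 10 µM. Higher most likely means stronger inhibition; the record gives no direction and few retests gave an IC50. Size under these conditions: about 65,000 compounds, about 64 of them at 50% or above in at least one test.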
ClpP1P2: 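ClpP1P2, Mycobacterium tuberculosis (UniProt P9WPC5 and UniProt P9WPC3). Protease assay of ClpP1P2, read by the AMC dye that it sets free. Concentration: 50 µM. Direction is inferred from only a few compounds that gave an IC50; most scored high, so higher reads as stronger inhibition. Most other retested compounds had strongly negative values. Size under these conditions: about 69,000 compounds, about 10 of them at 50% or above in at least one test.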

Sequences of proteins named here, by UniProt entry; tags and fusion partners are left off. Residues count along the entry.
UniProt Q8IDJ8, 1-583: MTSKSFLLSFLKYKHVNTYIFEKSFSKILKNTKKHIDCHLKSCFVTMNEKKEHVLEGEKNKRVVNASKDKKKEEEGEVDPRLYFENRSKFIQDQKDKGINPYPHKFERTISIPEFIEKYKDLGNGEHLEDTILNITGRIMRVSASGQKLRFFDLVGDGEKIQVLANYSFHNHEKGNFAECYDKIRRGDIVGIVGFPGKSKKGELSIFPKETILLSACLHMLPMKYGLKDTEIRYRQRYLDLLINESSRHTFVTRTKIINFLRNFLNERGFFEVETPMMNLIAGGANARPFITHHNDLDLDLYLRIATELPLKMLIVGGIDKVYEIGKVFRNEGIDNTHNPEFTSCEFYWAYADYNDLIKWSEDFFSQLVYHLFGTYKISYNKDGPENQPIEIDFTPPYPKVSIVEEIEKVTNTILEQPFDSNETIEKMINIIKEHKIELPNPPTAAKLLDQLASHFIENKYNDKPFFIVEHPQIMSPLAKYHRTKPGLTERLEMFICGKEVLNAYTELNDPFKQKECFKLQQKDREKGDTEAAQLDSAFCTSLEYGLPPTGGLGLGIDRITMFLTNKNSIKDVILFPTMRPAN
UniProt P9WFT3, whole entry: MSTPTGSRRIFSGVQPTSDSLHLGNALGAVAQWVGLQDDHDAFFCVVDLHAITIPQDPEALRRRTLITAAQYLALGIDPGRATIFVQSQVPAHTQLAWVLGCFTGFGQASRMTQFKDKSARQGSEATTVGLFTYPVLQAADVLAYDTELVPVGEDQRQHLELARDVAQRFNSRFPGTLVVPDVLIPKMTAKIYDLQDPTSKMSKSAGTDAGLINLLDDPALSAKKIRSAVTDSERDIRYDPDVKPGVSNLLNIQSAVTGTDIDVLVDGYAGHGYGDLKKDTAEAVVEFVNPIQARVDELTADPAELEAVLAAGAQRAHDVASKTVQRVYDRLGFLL
UniProt P9WPC5, whole entry: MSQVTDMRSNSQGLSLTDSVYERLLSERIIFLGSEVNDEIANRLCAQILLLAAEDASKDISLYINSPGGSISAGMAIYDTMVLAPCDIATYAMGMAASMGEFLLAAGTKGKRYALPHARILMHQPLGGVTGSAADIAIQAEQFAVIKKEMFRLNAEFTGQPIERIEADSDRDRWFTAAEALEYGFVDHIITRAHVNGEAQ
UniProt P9WPC3, whole entry partner: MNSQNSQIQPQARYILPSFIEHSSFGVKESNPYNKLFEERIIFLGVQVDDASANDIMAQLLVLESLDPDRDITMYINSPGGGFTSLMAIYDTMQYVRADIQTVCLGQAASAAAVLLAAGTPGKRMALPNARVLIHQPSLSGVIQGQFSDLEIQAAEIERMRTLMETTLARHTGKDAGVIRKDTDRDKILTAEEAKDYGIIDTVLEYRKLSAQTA

Values are the deposited “Percent Effect”, in %. The controls that fix the scale are not given in the record; negative values are as filed. This is an unselected part of the compounds tested.

{"compound": "N#Cc1ccc(N2CCCC3(CCN(c4cncnc4)C3=O)C2)nc1", "stereo": "centres undefined", "PfKRS1": 1.265, "ClpP1P2": -1.138}
{"compound": "Cn1ccnc1CN1CCC2(CC1)CN(c1ccccn1)CCO2", "PfKRS1": 2.796, "MtTrpRS": 15.82, "ClpP1P2": -11.92}
{"compound": "O=C1CCCN1Cc1nnc2n1CCCN(C(=O)c1ccco1)C2", "PfKRS1": 2.38, "ClpP1P2": 30.97}
{"compound": "c1cncc(-c2noc(CN3CCOC(Cn4cccn4)C3)n2)c1", "stereo": "centres undefined", "PfKRS1": -1.705, "MtTrpRS": -4.08, "ClpP1P2": -32.64}
{"compound": "O=C(C1CCS(=O)(=O)CC1)N1CCC(Cc2ccc(F)cc2)CC1", "PfKRS1": 0.6344, "MtTrpRS": 4.886, "ClpP1P2": 5.552}
{"compound": "Fc1ccc(CN2C[C@@H]3OCCN(CC4CCCO4)[C@@H]3C2)cc1", "stereo": "some centres undefined", "PfKRS1": 6.251, "MtTrpRS": 1.91, "ClpP1P2": 4.269}
{"compound": "O=C(c1cnccn1)N1CCN(Cc2ccncc2)c2ncccc2C1", "PfKRS1": 2.397, "MtTrpRS": -7.03, "ClpP1P2": 1.098}
{"compound": "CS(=O)(=O)c1ccc2c(c1)nc1n2[C@@H](CNCc2cccnc2)COC1", "PfKRS1": 1.137, "MtTrpRS": -1.431, "ClpP1P2": -5.336}
{"compound": "COCC(C)(CCO)NC(=O)Nc1cccc(Br)c1C", "stereo": "centres undefined", "PfKRS1": 0.4746, "MtTrpRS": -5.142, "ClpP1P2": 14.55}
{"compound": "CCc1cnc(N2C[C@H]3C[C@H](C(=O)N4CCOCC4)[C@@H](C2)O3)nc1", "PfKRS1": 4.433, "ClpP1P2": 7.75}
{"compound": "CC(C)CCN1C[C@H]2C[C@H](C(=O)Nc3cccnc3)[C@@H](C1)O2", "PfKRS1": 1.232, "MtTrpRS": -5.942, "ClpP1P2": -2.364}
{"compound": "CN(Cc1ncnn1C)C(=O)c1ccccc1NCc1ccccc1", "PfKRS1": 0.8713, "MtTrpRS": 20.99, "ClpP1P2": -14.19}
{"compound": "O=c1[nH]c2nc(N3CCCC3)ncc2c(=O)n1-c1cccc(F)c1", "PfKRS1": 7.27, "MtTrpRS": -0.4068, "ClpP1P2": 5.806}
{"compound": "Cc1nc(CC(=O)N2CCCC[C@H](N(C)C)C2)cs1", "PfKRS1": -0.2663, "MtTrpRS": 7.116, "ClpP1P2": -6.015}
{"compound": "Cc1c(-c2ccccc2)ncn1CCCNc1cccnc1", "PfKRS1": 4.751, "MtTrpRS": -0.3027, "ClpP1P2": 1.817}
{"compound": "CC(C)Oc1ncccc1CNC(=O)Nc1ccccn1", "PfKRS1": 4.178, "MtTrpRS": -3.834, "ClpP1P2": 2.845}
{"compound": "Cc1ccc(C(NC(=O)CCNC(=O)c2ccoc2)C(F)(F)F)cc1", "stereo": "centres undefined", "PfKRS1": 2.933, "MtTrpRS": 1.037, "ClpP1P2": 2.667}
{"compound": "Cc1csc(CCNc2ccc(C#N)cn2)n1", "PfKRS1": 4.179, "MtTrpRS": -0.9382, "ClpP1P2": 0.1718}
{"compound": "CNC(=O)CCCNCc1c(C)nn(CC(C)C)c1N(C)C", "PfKRS1": 1.118, "MtTrpRS": -3.617, "ClpP1P2": 3.919}
{"compound": "CCc1csc(C2CCCN(C(=O)C3=NN(CC)C(=O)CC3)C2)n1", "stereo": "centres undefined", "PfKRS1": 6.782, "MtTrpRS": 4.237, "ClpP1P2": 1.715}
{"compound": "O=S(=O)(c1cc2ccccc2o1)N1CCCC1", "PfKRS1": 5.413, "MtTrpRS": 1.012, "ClpP1P2": -8.601}
{"compound": "O=C1CCC[C@]2(CN(S(=O)(=O)N3CCCCC3)C[C@H]2c2cccnc2)N1", "PfKRS1": 0.8848, "MtTrpRS": -6.167, "ClpP1P2": -6.42}
{"compound": "CCO[C@H]1CN(C)C[C@@H]1NC(=O)c1c[nH]nc1C1CCCCC1", "PfKRS1": 4.903, "MtTrpRS": -1.358, "ClpP1P2": 0.3116}
{"compound": "CN1CCC(Cc2cnc(CNC(=O)Cc3cccc(F)c3)cn2)CC1", "PfKRS1": -0.9428, "MtTrpRS": -6.593, "ClpP1P2": -7.399}
{"compound": "Cc1ccc(N2CCN(C(=O)CCc3n[nH]c(C)c3C)CC2=O)cc1", "PfKRS1": 2.643, "MtTrpRS": 0.122, "ClpP1P2": 12.24}
{"compound": "O=C1NCCO[C@H]2CN(C(=O)CC3Cc4ccccc4C3)CC[C@@H]12", "PfKRS1": 4.531, "MtTrpRS": -8.913, "ClpP1P2": -10.63}
{"compound": "CC1=C(c2ccc(Cl)cc2)S(=O)(=O)N=C1N1CCc2ccccc21", "PfKRS1": 7.129, "MtTrpRS": -1.614, "ClpP1P2": 20.43}
{"compound": "NC(=O)c1cccc(CS(=O)(=O)CC(O)Cn2cccn2)c1", "stereo": "centres undefined", "PfKRS1": 5.849, "MtTrpRS": -6.859, "ClpP1P2": 1.725}
{"compound": "N#Cc1c(N)nc2c(c1-c1c[nH]nc1C1CCCCC1)COCC2", "PfKRS1": 4.178, "MtTrpRS": -1.769, "ClpP1P2": 4.833}
{"compound": "Cc1cc(=O)n2nc(Oc3ccc(F)c(F)c3)sc2n1", "PfKRS1": -3.694, "MtTrpRS": 6.274, "ClpP1P2": 8.317}
{"compound": "CC(C)COC1CCN(C(=O)c2cc3ccccc3c(=O)[nH]2)CC1", "PfKRS1": -8.546, "MtTrpRS": 3.627, "ClpP1P2": -4.12}
{"compound": "COc1cc(CNCCc2cc(F)cc3c2OCOC3)cc(OC)c1", "PfKRS1": 3.131, "MtTrpRS": -0.1273, "ClpP1P2": -32.92}
{"compound": "CCc1nnc2n1CCN(C(=O)CCc1ccc(C)c(Cl)c1)C2", "PfKRS1": 5.377, "MtTrpRS": 4.199, "ClpP1P2": -5.071}
{"compound": "N#Cc1ccc(OC2CCN(C(=O)c3ccc(Br)o3)CC2)nc1", "PfKRS1": -3.519, "MtTrpRS": -3.284, "ClpP1P2": -11.68}
{"compound": "CC(C)CNC(=O)Nc1cccc(CN2CCOC2=O)c1", "PfKRS1": -2.981, "MtTrpRS": 3.601, "ClpP1P2": 8.752}
{"compound": "Cc1ccc(C)c(CC(=O)NC2CCS(=O)(=O)CC2)c1", "PfKRS1": 2.294, "MtTrpRS": -1.232, "ClpP1P2": -1.697}
{"compound": "N#Cc1cccc(C(=O)N2CCCC(C(=O)CCc3ccccc3)C2)c1", "stereo": "centres undefined", "PfKRS1": 7.896, "MtTrpRS": 0.6798, "ClpP1P2": 3.598}

The last 5 entries again:

CCc1nnc2n1CCN(C(=O)CCc1ccc(C)c(Cl)c1)C2 read PfKRS1: 5.377%; MtTrpRS: 4.199%; ClpP1P2: -5.071%.
N#Cc1ccc(OC2CCN(C(=O)c3ccc(Br)o3)CC2)nc1 read PfKRS1: -3.519%; MtTrpRS: -3.284%; ClpP1P2: -11.68%.
CC(C)CNC(=O)Nc1cccc(CN2CCOC2=O)c1 read PfKRS1: -2.981%; MtTrpRS: 3.601%; ClpP1P2: 8.752%.
Cc1ccc(C)c(CC(=O)NC2CCS(=O)(=O)CC2)c1 read PfKRS1: 2.294%; MtTrpRS: -1.232%; ClpP1P2: -1.697%.
N#Cc1cccc(C(=O)N2CCCC(C(=O)CCc3ccccc3)C2)c1 (centres undefined) read PfKRS1: 7.896%; MtTrpRS: 0.6798%; ClpP1P2: 3.598%.

The values are deposited in ChEMBL (CHEMBL3988442, “University of Dundee, Small-Polar-MMV Screening Library” (2021)).